# Data: the supplement of paper PMC8728848
# The list shows a part of the results.
# Tests used:
# Assay in all cases: glycan array binding signal (z-score within array); higher = stronger binding
# Details in all cases: glycan notation: IUPAC condensed, linker removed
# [1] = target: Gal(b1-4)GlcNAc(b1-3)Gal(b1-4)Glc
# In short: (§1)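 The binding signal is a Z-score computed within each array and averaged over linkers. Arrays of the same protein sequence at different concentrations or buffers were also averaged together. Data originate from 3228 arrays in the Consortium for Functional Glycomics database, kept only where the protein sequence was available.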
# [2] = target: Gal(b1-4)GlcNAc(b1-3)Gal(b1-4)GlcNAc
# In short: as §1
# [3] = target: Gal(b1-4)GlcNAc(b1-3)Gal(b1-4)GlcNAc(b1-3)Gal(b1-4)GlcNAc
# In short: as §1
# [4] = target: Gal(b1-4)GlcNAc(b1-3)Gal(b1-4)[Fuc(a1-3)GlcNAc(b1-6)]Gal(b1-4)Glc
# In short: as §1
# [5] = target: Gal(b1-4)GlcNAc(b1-3)Gal(b1-4)[Fuc(a1-3)]GlcNAc(b1-3)Gal(b1-4)[Fuc(a1-3)]GlcNAc
# In short: as §1
# [6] = target: Gal(b1-4)GlcNAc(b1-3)GalNAc
# In short: as §1
# [7] = target: Gal(b1-4)GlcNAc(b1-3)[Gal(b1-4)GlcNAc(b1-6)]Gal(b1-4)GlcNAc
# In short: as §1
# [8] = target: Gal(b1-4)GlcNAc(b1-3)[Gal(b1-4)GlcNAc(b1-6)]GalNAc
# In short: as §1
# [9] = target: Gal(b1-4)GlcNAc(b1-3)[GlcNAc(b1-6)]Gal(b1-4)GlcNAc
# In short: as §1
# [10] = target: Gal(b1-4)GlcNAc(b1-6)Gal(b1-4)GlcNAc
# In short: as §1
# [11] = target: Gal(b1-4)GlcNAc(b1-6)GalNAc
# In short: as §1
# [12] = target: Gal(b1-4)GlcNAc(b1-6)[Gal(b1-3)]GalNAc
# In short: as §1
# Gal(b1-6)Gal = target: Gal(b1-6)Gal
# In short: as §1
# Gal3S(b1-3)GalNAc = target: Gal3S(b1-3)GalNAc
# In short: as §1
# Gal3S(b1-3)GlcNAc = target: Gal3S(b1-3)GlcNAc
# In short: as §1
# [13] = target: Gal3S(b1-3)[Fuc(a1-4)]GlcNAc
# In short: as §1
# Gal3S(b1-4)Glc = target: Gal3S(b1-4)Glc
# In short: as §1
# Gal3S(b1-4)Glc6S = target: Gal3S(b1-4)Glc6S
# In short: as §1
# Gal3S(b1-4)GlcNAc = target: Gal3S(b1-4)GlcNAc
# In short: as §1
# Gal3S(b1-4)GlcNAc6S = target: Gal3S(b1-4)GlcNAc6S
# In short: as §1
# [14] = target: Gal3S(b1-4)[Fuc(a1-3)]Glc
# In short: as §1
# [15] = target: Gal3S(b1-4)[Fuc(a1-3)]Glc6S
# In short: as §1
# Gal3S4S(b1-4)GlcNAc = target: Gal3S4S(b1-4)GlcNAc
# In short: as §1
# Gal3S6S(b1-4)GlcNAc = target: Gal3S6S(b1-4)GlcNAc
# In short: as §1
# Gal3S6S(b1-4)GlcNAc6S = target: Gal3S6S(b1-4)GlcNAc6S
# In short: as §1
# Gal4S(b1-4)GlcNAc = target: Gal4S(b1-4)GlcNAc
# In short: as §1
# Gal4S6S(b1-4)GlcNAc = target: Gal4S6S(b1-4)GlcNAc
# In short: as §1
# Gal6S(b1-3)GlcNAc = target: Gal6S(b1-3)GlcNAc
# In short: as §1
# Gal6S(b1-3)GlcNAc6S = target: Gal6S(b1-3)GlcNAc6S
# In short: as §1
# Gal6S(b1-4)Glc = target: Gal6S(b1-4)Glc
# In short: as §1
# Gal6S(b1-4)Glc6S = target: Gal6S(b1-4)Glc6S
# In short: as §1
# Gal6S(b1-4)GlcNAc = target: Gal6S(b1-4)GlcNAc
# In short: as §1
# Gal6S(b1-4)GlcNAc6S = target: Gal6S(b1-4)GlcNAc6S
# In short: as §1
# GalNAc(a1-3)Gal = target: GalNAc(a1-3)Gal
# In short: as §1
# GalNAc(a1-3)GalNAc = target: GalNAc(a1-3)GalNAc
# In short: as §1
# [16] = target: GalNAc(a1-3)GalNAc(b1-3)Gal(a1-4)Gal(b1-4)Glc
# In short: as §1
# [17] = target: GalNAc(a1-3)GalNAc(b1-3)Gal(a1-4)Gal(b1-4)GlcNAc
# In short: as §1
# GalNAc(b1-3)Gal = target: GalNAc(b1-3)Gal
# In short: as §1
# [18] = target: GalNAc(b1-3)Gal(a1-4)Gal(b1-4)GlcNAc
# In short: as §1
# [19] = target: GalNAc(b1-3)Gal(a1-4)Gal(b1-4)GlcNAc(b1-3)Gal(b1-4)Glc
# In short: as §1
# [20] = target: GalNAc(b1-3)Gal(a1-6)Gal(b1-4)Glc
# In short: as §1
# GalNAc(b1-3)GalNAc = target: GalNAc(b1-3)GalNAc
# In short: as §1
# GalNAc(b1-4)Gal(b1-4)Glc = target: GalNAc(b1-4)Gal(b1-4)Glc
# In short: as §1
# GalNAc(b1-4)GlcNAc = target: GalNAc(b1-4)GlcNAc
# In short: as §1
# [21] = target: GalNAc(b1-4)GlcNAc(b1-2)Man(a1-3)[GalNAc(b1-4)GlcNAc(b1-2)Man(a1-6)]Man(b1-4)GlcNAc(b1-4)GlcNAc
# In short: as §1
binder,measurement,setting,value
"Eosinophil-derived neurotoxin (EDN) (Homo sapiens), P10153 (protein) MVPKLFTSQICLLLLLGLLAVEGSLHVKPPQFTWAQWFETQHINMTSQQCTNAMQVINNYQRRCKNQNTFLLTTFANVVNVCGNPNMTCPSNKTRKNCHHSGSQVPLIHCNLTTPSPQNISNCRYAQTPANMFYIVACDNRDQRRDPPQYPVVPVHLDRII",glycan array binding signal (z-score),[1],-1.02
same,glycan array binding signal (z-score),[2],-0.132
same,glycan array binding signal (z-score),[3],0.104
same,glycan array binding signal (z-score),[4],0.142
same,glycan array binding signal (z-score),[5],-0.777
same,glycan array binding signal (z-score),[6],-0.002
same,glycan array binding signal (z-score),[7],1.13
same,glycan array binding signal (z-score),[8],-0.046
same,glycan array binding signal (z-score),[9],1.36
same,glycan array binding signal (z-score),[10],0.42
same,glycan array binding signal (z-score),[11],0
same,glycan array binding signal (z-score),[12],0.024
same,glycan array binding signal (z-score),Gal(b1-6)Gal,-0.248
same,glycan array binding signal (z-score),Gal3S(b1-3)GalNAc,0.175
same,glycan array binding signal (z-score),Gal3S(b1-3)GlcNAc,0.392
same,glycan array binding signal (z-score),[13],0.104
same,glycan array binding signal (z-score),Gal3S(b1-4)Glc,-0.269
same,glycan array binding signal (z-score),Gal3S(b1-4)Glc6S,0.49
same,glycan array binding signal (z-score),Gal3S(b1-4)GlcNAc,-0.491
same,glycan array binding signal (z-score),Gal3S(b1-4)GlcNAc6S,-0.506
same,glycan array binding signal (z-score),[14],0.278
same,glycan array binding signal (z-score),[15],0.847
same,glycan array binding signal (z-score),Gal3S4S(b1-4)GlcNAc,0.029
same,glycan array binding signal (z-score),Gal3S6S(b1-4)GlcNAc,-0.241
same,glycan array binding signal (z-score),Gal3S6S(b1-4)GlcNAc6S,0.136
same,glycan array binding signal (z-score),Gal4S(b1-4)GlcNAc,0.19
same,glycan array binding signal (z-score),Gal4S6S(b1-4)GlcNAc,0.33
same,glycan array binding signal (z-score),Gal6S(b1-3)GlcNAc,-0.091
same,glycan array binding signal (z-score),Gal6S(b1-3)GlcNAc6S,0.361
same,glycan array binding signal (z-score),Gal6S(b1-4)Glc,-0.47
same,glycan array binding signal (z-score),Gal6S(b1-4)Glc6S,-0.517
same,glycan array binding signal (z-score),Gal6S(b1-4)GlcNAc,-0.689
same,glycan array binding signal (z-score),Gal6S(b1-4)GlcNAc6S,-0.122
same,glycan array binding signal (z-score),GalNAc(a1-3)Gal,-0.107
same,glycan array binding signal (z-score),GalNAc(a1-3)GalNAc,-0.107
same,glycan array binding signal (z-score),[16],-0.141
same,glycan array binding signal (z-score),[17],-0.528
same,glycan array binding signal (z-score),GalNAc(b1-3)Gal,0.325
same,glycan array binding signal (z-score),[18],0.073
same,glycan array binding signal (z-score),[19],-0.993
same,glycan array binding signal (z-score),[20],0.279
same,glycan array binding signal (z-score),GalNAc(b1-3)GalNAc,0.145
same,glycan array binding signal (z-score),GalNAc(b1-4)Gal(b1-4)Glc,-0.211
same,glycan array binding signal (z-score),GalNAc(b1-4)GlcNAc,-0.053
same,glycan array binding signal (z-score),[21],0.003

# Given with tabs: part of the list above.
binder	measurement	setting	value
Eosinophil-derived neurotoxin (EDN) (Homo sapiens), P10153 (protein) MVPKLFTSQICLLLLLGLLAVEGSLHVKPPQFTWAQWFETQHINMTSQQCTNAMQVINNYQRRCKNQNTFLLTTFANVVNVCGNPNMTCPSNKTRKNCHHSGSQVPLIHCNLTTPSPQNISNCRYAQTPANMFYIVACDNRDQRRDPPQYPVVPVHLDRII	glycan array binding signal (z-score)	[9]	1.36
same	glycan array binding signal (z-score)	GalNAc(a1-3)Gal	-0.107
